{"source": "PubChem BioAssay AID248", "about": "(DTP/NCI, 2004)", "system": "L1210 leukemia ip in BDF1 mice, survival T/C", "assay": "NCI In Vivo Anticancer Drug Screen. Data for tumor model L1210 Leukemia (intraperitoneal) in B6D2F1 (BDF1) mice", "conditions": "T/C endpoint: mean survival time, higher T/C = longer survival", "note": "The list is a part of this screen's results and no random one: it is rich in T/C values a quarter to a half above the control, in often repeated tests (any T/C) and in doses without a T/C. Other doses and runs of a compound stand elsewhere. T/C is the treated group as % of the vehicle group. Some doses have a count of surviving animals in place of a T/C: the source holds a T/C of zero for them, seemingly a mark for toxic or unscored doses. Some doses without a T/C left all or most animals alive at the check, yet need not have been tolerated: the source hardly ever lists a survival T/C far under the control, and the zero likely stands for such cases as well. Survivors were counted at the toxicity check, usually on the fifth day, unless a day is given; later deaths do not show. Schedules are NCI's codes, taken here to give the interval after Q, in days (D) or hours (H), and the number of doses after X. For survival time, the PubChem record calls one and a half times the control and up active, and a quarter to a half above the control has no call in these data; cut-offs in other NCI protocols can differ. Some entries hold several experiments; their values stand side by side, smallest first. Some schedules carry Z or #; the key to these is not given. Some T/C values carry the count of animals alive at the toxicity check (mostly the fifth day); without a count, all were alive then.", "data": [{"smiles": "CC(=O)OC(=O)C1C2CC3C(C2)C31", "note": "(configuration not stated)", "values": [{"measurement": "survivor count", "setting": "dose: 100.0 mg/kg/injection, schedule: Q04DX003 (ip), vehicle: other", "value": "6 of 6"}, {"measurement": "survivor count", "setting": "dose: 200.0 mg/kg/injection, schedule: Q04DX003 (ip), vehicle: other", "value": "3 of 6"}, {"measurement": "survivor count", "setting": "dose: 400.0 mg/kg/injection, schedule: Q04DX003 (ip), vehicle: other", "value": "0 of 6"}]}, {"smiles": "O=[N+]([O-])/C=C/C(Cl)(Cl)Cl", "values": [{"measurement": "survivor count", "setting": "dose: 100.0 mg/kg/injection, schedule: Q01DX009 (ip), vehicle: Klucel (hydroxypropylcellulose) (HPC)", "value": "0 of 6"}, {"measurement": "survivor count", "setting": "dose: 200.0 mg/kg/injection, schedule: Q01DX009 (ip), vehicle: Klucel (hydroxypropylcellulose) (HPC)", "value": "0 of 6"}]}, {"smiles": "Cc1cc[n+](Cc2cc3ccccc3[nH]c2=O)cc1", "values": [{"measurement": "survivor count", "setting": "dose: 100.0 mg/kg/injection, schedule: Q01DX001 (ip), vehicle: saline", "value": "3 of 6"}, {"measurement": "survivor count", "setting": "dose: 200.0 mg/kg/injection, schedule: Q01DX001 (ip), vehicle: saline", "value": "0 of 6"}, {"measurement": "survivor count", "setting": "dose: 400.0 mg/kg/injection, schedule: Q01DX001 (ip), vehicle: saline", "value": "0 of 6"}]}, {"smiles": "COc1cc(/C=N/[N+](C)(C)C)ccc1O", "values": [{"measurement": "survivor count", "setting": "dose: 50.0 mg/kg/injection, schedule: Q01DX009 (ip), vehicle: saline with Tween-80", "value": "4 of 6"}, {"measurement": "survivor count", "setting": "dose: 100.0 mg/kg/injection, schedule: Q04DX003 (ip), vehicle: saline with Tween-80", "value": "0 of 6"}, {"measurement": "survivor count", "setting": "dose: 200.0 mg/kg/injection, schedule: Q04DX003 (ip), vehicle: saline with Tween-80", "value": "0 of 6"}, {"measurement": "survivor count", "setting": "dose: 400.0 mg/kg/injection, schedule: Q04DX003 (ip), vehicle: saline with Tween-80", "value": "0 of 6"}]}, {"smiles": "CCCOC(=O)C1(N)CCCC1", "values": [{"measurement": "T/C", "setting": "dose: 66.0 mg/kg/injection, schedule: Q01DX Z (ip), vehicle: saline", "value": "133 % of control"}, {"measurement": "T/C", "setting": "dose: 125.0 mg/kg/injection, schedule: Q01DX Z (ip), vehicle: carboxymethylcellulose (CMC)", "value": "134 % of control"}, {"measurement": "T/C", "setting": "dose: 200.0 mg/kg/injection, schedule: Q04DX003 (ip), vehicle: Klucel (hydroxypropylcellulose) (HPC)", "value": "140 % of control"}, {"measurement": "T/C", "setting": "dose: 400.0 mg/kg/injection, schedule: Q01DX001 (ip), vehicle: Klucel (hydroxypropylcellulose) (HPC)", "value": "139 and 140 % of control"}, {"measurement": "T/C", "setting": "dose: 600.0 mg/kg/injection, schedule: Q01DX001 (ip), vehicle: Klucel (hydroxypropylcellulose) (HPC)", "value": "145 % of control [5 of 6 alive]"}, {"measurement": "T/C", "setting": "dose: 800.0 mg/kg/injection, schedule: Q01DX001 (ip), vehicle: Klucel (hydroxypropylcellulose) (HPC)", "value": "142 % of control"}, {"measurement": "survivor count", "setting": "dose: 1200.0 mg/kg/injection, schedule: Q01DX001 (ip), vehicle: Klucel (hydroxypropylcellulose) (HPC)", "value": "0 of 6"}]}, {"smiles": "Cc1nc2c(NC(=O)CCl)nn(C)c2nc1C", "values": [{"measurement": "survivor count", "setting": "dose: 200.0 mg/kg/injection, schedule: Q01DX009 (ip), vehicle: saline with Tween-80", "value": "3 of 6"}]}, {"smiles": "CCCCC(=O)N1CC(C)OC(C)C1", "note": "(configuration not stated)", "values": [{"measurement": "survivor count", "setting": "dose: 100.0 mg/kg/injection, schedule: Q01DX009 (ip), vehicle: carboxymethylcellulose (CMC)", "value": "3 of 3"}]}, {"smiles": "Nc1cccc(-c2csc(N)n2)c1", "values": [{"measurement": "survivor count", "setting": "dose: 400.0 mg/kg/injection, schedule: Q01DX001 (ip), vehicle: carboxymethylcellulose (CMC)", "value": "2 of 4"}]}]}
